The list shows a part of the results. For some of these results: Many values rest on one well or one pass, so single values are uncertain.
What was measured:
Details in all cases: RNA concentration 10 µM; fragment concentration 200 µM; 293 K
[1] = system: SARS-CoV-2 5_SL7 RNA; assay: T2 signal reduction relative to ligand without RNA (fraction); higher = stronger binding
[2] = system: SARS-CoV-2 frameshift pseudoknot (PK) RNA; assay: as above
[3] = system: SARS-CoV-2 3'-UTR RNA; assay: NMR binding call after quantification (hit when 2 of 3 NMR criteria are met) (binary (1 = binding, 0 = not binding)); higher = binding
[4] = system: SARS-CoV-2 3_SL1 RNA; assay: as above
[5] = system: SARS-CoV-2 3_SL1+2 RNA; assay: as above
[6] = system: SARS-CoV-2 3_SL2 RNA; assay: as above
[7] = system: SARS-CoV-2 3_SL3base RNA; assay: as above
[8] = system: SARS-CoV-2 3_s2m RNA; assay: as above
[9] = system: SARS-CoV-2 5'-UTR RNA; assay: as above
[10] = system: SARS-CoV-2 5_SL1 RNA; assay: as above
[11] = system: SARS-CoV-2 5_SL1234 RNA; assay: as above
[12] = system: SARS-CoV-2 5_SL2+3 RNA; assay: as above
[13] = system: SARS-CoV-2 5_SL4 RNA; assay: as above
[14] = system: SARS-CoV-2 5_SL5 RNA; assay: as above
[15] = system: SARS-CoV-2 5_SL5a RNA; assay: as above
[16] = system: SARS-CoV-2 5_SL5b+c RNA; assay: as above
[17] = system: SARS-CoV-2 5_SL5stem RNA; assay: as above
[18] = system: SARS-CoV-2 5_SL6 RNA; assay: as above
[19] = system: SARS-CoV-2 5_SL8 RNA; assay: T2 signal reduction relative to ligand without RNA (fraction); higher = stronger binding
[20] = system: SARS-CoV-2 attenuator hairpin (att HP) RNA; assay: as above

Structure (SMILES) | T2 signal reduction [1] | T2 signal reduction [2] | NMR binding call [3] | NMR binding call [4] | NMR binding call [5] | NMR binding call [6] | NMR binding call [7] | NMR binding call [8] | NMR binding call [9] | NMR binding call [10] | NMR binding call [11] | NMR binding call [12] | NMR binding call [13] | NMR binding call [14] | NMR binding call [15] | NMR binding call [16] | NMR binding call [17] | NMR binding call [18] | T2 signal reduction [19] | T2 signal reduction [20]
c1ccc(-c2ccc(-n3cnnn3)cc2)cc1 | 0.32 | 0.6 | 0 | 0 | 0 | 0 | 0 | 0 | 0 | 0 | 0 | 0 | 0 | 0 | 0 | 0 | 0 | 1 | – | –
CNC(=O)Nc1nc2ccc(OC)cc2s1 | 0.49 | 0.59 | 0 | 0 | 0 | 0 | 0 | 1 | 0 | 1 | 1 | 0 | 1 | – | 0 | – | 0 | 0 | – | –
O=C(COC(F)F)N1CCCC2(CC2)C1 | – | – | 0 | 0 | 0 | 0 | 0 | 0 | 0 | 0 | 0 | 0 | 0 | 0 | 0 | 0 | 0 | 0 | – | –
CC(=O)c1ccc(NC(=O)CN2CCCC2)cc1 | 0.4 | 0.39 | 1 | 0 | 1 | 1 | 1 | 1 | 1 | 1 | – | 0 | – | 1 | – | 0 | – | – | – | –
CC(=O)N(C)c1cccnc1 | – | – | 0 | 0 | 0 | 0 | 0 | 0 | 0 | 0 | 0 | 0 | 0 | 0 | 0 | 0 | 0 | 0 | – | –
Fc1cccc(CNCc2ccco2)c1 | – | – | 0 | 0 | 0 | 0 | 0 | 0 | 0 | 0 | 0 | 0 | 0 | 0 | 0 | 0 | 0 | 0 | – | –
Cc1cccc(N2CCNC(C)C2)n1 (stereo unspecified) | – | – | 0 | 0 | 0 | 0 | 0 | 0 | 0 | 0 | 0 | 0 | 0 | 0 | 0 | 0 | 0 | 0 | – | –
Cc1ccccc1OCC(=O)Nc1ccccc1 | – | 0.26 | 1 | 0 | 0 | 0 | 0 | 0 | 0 | 0 | 0 | 0 | 0 | 1 | 0 | 0 | 0 | 0 | – | –
Cc1ccc(C(N)=O)c(F)c1 | – | – | 0 | 0 | 0 | 0 | 0 | 0 | 0 | 0 | 0 | 0 | 0 | 0 | 0 | 0 | 0 | 0 | – | –
Nc1ccccc1OCc1ccccc1 | – | – | 0 | 0 | 0 | 0 | 0 | 0 | 0 | 0 | 0 | 0 | 0 | 0 | 0 | 0 | 0 | – | – | –
c1cc(-c2ccc3c(c2)OCO3)n[nH]1 | – | – | 1 | 0 | 0 | 0 | 1 | 0 | 1 | 0 | – | 0 | – | 1 | – | 0 | 0 | – | 0.37 | –
CC(C)C(=O)Nc1cccc(C#N)c1 | – | – | 0 | 0 | 0 | 0 | 0 | 0 | 0 | 0 | 0 | 0 | 0 | 0 | 0 | 0 | 0 | – | – | –
c1ccc(NCC2CCNC2)nc1 (stereo unspecified) | 0.27 | 0.8 | 0 | 0 | 0 | – | – | – | 1 | – | – | – | – | – | – | 1 | – | – | – | –
CN1CCN(c2ccc(C#N)cc2)CC1 | 0.32 | – | 1 | 0 | 0 | 0 | – | – | 0 | 0 | 0 | 0 | 0 | – | 0 | 0 | 0 | – | – | –
COc1ccc2[nH]cc(CN(C)C)c2c1 | 0.44 | – | 0 | 0 | 0 | – | – | – | 1 | 0 | – | 0 | – | – | – | 0 | – | – | – | –
CC1CCCCN1CCN (stereo unspecified) | – | – | 0 | 0 | 0 | 0 | 0 | 0 | 0 | 0 | 0 | 0 | 0 | 0 | 0 | 0 | 0 | 0 | – | –
CC(O)C(=O)NCc1ccccn1 (stereo unspecified) | – | – | 0 | 0 | 0 | 0 | 0 | 0 | 0 | 0 | 0 | 0 | 0 | 0 | 0 | 0 | 0 | – | – | –
Cc1nccc(N2CCC(N)CC2)n1 | – | 0.38 | 1 | 0 | 1 | 1 | 1 | 1 | 1 | 0 | – | – | – | – | – | 1 | – | – | – | –
NC(=O)c1cc(N2CCCC2)ccn1 | 0.43 | – | 1 | 0 | 1 | 0 | 1 | 1 | 1 | 0 | 0 | 0 | 1 | 1 | 0 | 0 | 0 | – | – | –
CCNC1CCN(c2ccncc2)CC1 | 0.59 | 0.54 | 1 | 1 | 1 | 1 | 1 | 1 | 1 | 1 | 0 | 0 | 0 | 0 | 0 | 1 | 0 | 0 | – | –

Given in markdown: 8 of the compounds above.

| Structure (SMILES) | T2 signal reduction [1] | T2 signal reduction [2] | NMR binding call [3] | NMR binding call [4] | NMR binding call [5] | NMR binding call [6] | NMR binding call [7] | NMR binding call [8] | NMR binding call [9] | NMR binding call [10] | NMR binding call [11] | NMR binding call [12] | NMR binding call [13] | NMR binding call [14] | NMR binding call [15] | NMR binding call [16] | NMR binding call [17] | NMR binding call [18] | T2 signal reduction [19] | T2 signal reduction [20] |
| --- | --- | --- | --- | --- | --- | --- | --- | --- | --- | --- | --- | --- | --- | --- | --- | --- | --- | --- | --- | --- |
| CNC(=O)Nc1nc2ccc(OC)cc2s1 | 0.49 | 0.59 | 0 | 0 | 0 | 0 | 0 | 1 | 0 | 1 | 1 | 0 | 1 | – | 0 | – | 0 | 0 | – | – |
| O=C(COC(F)F)N1CCCC2(CC2)C1 | – | – | 0 | 0 | 0 | 0 | 0 | 0 | 0 | 0 | 0 | 0 | 0 | 0 | 0 | 0 | 0 | 0 | – | – |
| CC(=O)c1ccc(NC(=O)CN2CCCC2)cc1 | 0.4 | 0.39 | 1 | 0 | 1 | 1 | 1 | 1 | 1 | 1 | – | 0 | – | 1 | – | 0 | – | – | – | – |
| CC(=O)N(C)c1cccnc1 | – | – | 0 | 0 | 0 | 0 | 0 | 0 | 0 | 0 | 0 | 0 | 0 | 0 | 0 | 0 | 0 | 0 | – | – |
| Fc1cccc(CNCc2ccco2)c1 | – | – | 0 | 0 | 0 | 0 | 0 | 0 | 0 | 0 | 0 | 0 | 0 | 0 | 0 | 0 | 0 | 0 | – | – |
| Cc1cccc(N2CCNC(C)C2)n1 (stereo unspecified) | – | – | 0 | 0 | 0 | 0 | 0 | 0 | 0 | 0 | 0 | 0 | 0 | 0 | 0 | 0 | 0 | 0 | – | – |
| Cc1ccccc1OCC(=O)Nc1ccccc1 | – | 0.26 | 1 | 0 | 0 | 0 | 0 | 0 | 0 | 0 | 0 | 0 | 0 | 1 | 0 | 0 | 0 | 0 | – | – |
| Cc1ccc(C(N)=O)c(F)c1 | – | – | 0 | 0 | 0 | 0 | 0 | 0 | 0 | 0 | 0 | 0 | 0 | 0 | 0 | 0 | 0 | 0 | – | – |

(continued)

Structure (SMILES) | T2 signal reduction [1] | T2 signal reduction [2] | NMR binding call [3] | NMR binding call [4] | NMR binding call [5] | NMR binding call [6] | NMR binding call [7] | NMR binding call [8] | NMR binding call [9] | NMR binding call [10] | NMR binding call [11] | NMR binding call [12] | NMR binding call [13] | NMR binding call [14] | NMR binding call [15] | NMR binding call [16] | NMR binding call [17] | NMR binding call [18] | T2 signal reduction [19] | T2 signal reduction [20]
COc1ccc(Cl)cc1C(=O)NCC(C)C | – | – | 0 | 0 | 0 | 0 | 0 | 0 | 0 | 0 | 0 | 0 | 0 | 0 | 0 | 0 | 0 | 0 | – | –
O=C(Nc1ccc2ncccc2c1)c1ccccc1 | – | – | 1 | 0 | – | 0 | 1 | 0 | 1 | 0 | – | 0 | – | 1 | – | 0 | – | 0 | 0.33 | –
Cc1occc1C(=O)Nc1ccncc1 | – | 0.31 | 1 | 0 | 1 | 0 | 1 | 0 | 1 | 1 | – | – | – | 1 | – | 0 | 1 | – | 0.32 | –
CN(C(=O)C1CCNC1)c1ccccc1.Cl (stereo unspecified) | – | – | 0 | 0 | 0 | 0 | 0 | 0 | 0 | 0 | 0 | 0 | 0 | 0 | 0 | 0 | 0 | 0 | – | –
CC(=O)N1CCCC(C(N)=O)C1 (stereo unspecified) | – | – | 0 | 0 | 0 | 0 | 0 | 0 | 0 | 0 | 0 | 0 | 0 | 0 | 0 | 0 | 0 | 0 | – | –
CCN(C)C(=O)c1cccc(N)c1 | – | – | 0 | 0 | 0 | 0 | 0 | 0 | 0 | 0 | 0 | 0 | 0 | 0 | 0 | 0 | 0 | 0 | 0.38 | –
CNC(=O)CCC1CCCCC1 | – | – | 0 | 0 | 0 | 0 | 0 | 0 | 0 | 0 | 0 | 0 | 0 | 0 | 0 | 0 | 0 | 0 | – | –
COc1ccc2sc(N)nc2c1 | – | – | 1 | 0 | 0 | 0 | 1 | 0 | 1 | 0 | 0 | 0 | 0 | 1 | 0 | 0 | 0 | – | – | –
Cl.NCc1cc(-c2ccccc2)no1 | 0.41 | – | 1 | 0 | – | – | – | 1 | 1 | 0 | – | 0 | – | – | – | 0 | – | – | – | –
CNCC(=O)Nc1cc(C)ccn1 | – | – | 1 | 0 | 0 | 0 | 1 | 0 | 1 | 0 | 0 | 0 | 0 | 0 | 0 | 0 | 0 | – | – | –
CNC(=O)c1ccccc1NC(=O)c1ccco1 | – | – | 1 | 0 | – | – | 1 | 0 | 1 | 0 | – | – | 0 | 1 | – | – | – | 1 | 0.39 | –
NC(=O)c1ccccc1NC(=O)c1ccncc1 | – | – | 0 | 0 | 0 | 0 | 0 | 0 | 0 | 0 | 0 | 0 | 0 | 0 | 0 | 0 | 0 | – | – | –
O=C(Cc1ccc(F)cc1)NC1CCCCC1 | – | – | 0 | 0 | 0 | 0 | 0 | 0 | 0 | 0 | 0 | 0 | 0 | 0 | 0 | 0 | 0 | 0 | – | –
Cc1ccc(-c2noc(CNC(C)C)n2)cc1 | 0.43 | – | 1 | 0 | 0 | 0 | 1 | 0 | 1 | 0 | 0 | 0 | 0 | 1 | 0 | 0 | 0 | 0 | – | –
C1CCC(NCC2CCCO2)C1 (stereo unspecified) | – | – | 0 | 0 | 0 | 0 | 0 | 0 | 0 | 0 | 0 | 0 | 0 | 0 | 0 | 0 | 0 | 0 | – | –
CN(C)c1ccc(C(=O)Nc2ccncc2)cc1 | 0.87 | – | 0 | 1 | – | 1 | 0 | – | 0 | 0 | 1 | – | 1 | 0 | 0 | 1 | 0 | – | 1 | –
OCc1cn(-c2ccc(Cl)c(Cl)c2)nn1 | 0.48 | 0.7 | 1 | 1 | 1 | 1 | 1 | 1 | 1 | 1 | 1 | – | 1 | 1 | 0 | 1 | 1 | 1 | 0.14 | 0.08
Nc1nccc(-c2ccc(Cl)cc2)n1 | – | 0.8 | 1 | 0 | 0 | 1 | 1 | 0 | 1 | 0 | 0 | – | – | 1 | 0 | 1 | 0 | 0 | – | –
Cn1cc(C(=O)O)c(-c2ccncc2)n1 | – | – | 0 | 0 | 0 | 0 | 0 | 0 | 0 | 0 | 0 | 0 | 0 | 0 | 0 | 0 | 0 | – | – | –

— the supplement of paper PMC8426693
